No constants are given. Whether binding was seen depends on the method and setting. In cells and extracts the contact can be indirect. Some results given as binding are weak or reduced against the parent protein; the word gives no strength. Sequences can lack the tags named with a protein.

Chains of the proteins cited; added tags and fusions are not shown. Lines headed by an entry give the natural chain unless they say otherwise; changes in a name come on top. Residues count along the entry.
Flag-USP10 mutant 1 (M1), amino acids 1-100 (Q14694, residues 1-100): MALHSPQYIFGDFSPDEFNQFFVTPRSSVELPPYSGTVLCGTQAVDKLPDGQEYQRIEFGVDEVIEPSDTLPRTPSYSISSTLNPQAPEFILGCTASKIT
Flag-USP10 mutant 2 (M2), amino acids 101-400 (Q14694, residues 101-400): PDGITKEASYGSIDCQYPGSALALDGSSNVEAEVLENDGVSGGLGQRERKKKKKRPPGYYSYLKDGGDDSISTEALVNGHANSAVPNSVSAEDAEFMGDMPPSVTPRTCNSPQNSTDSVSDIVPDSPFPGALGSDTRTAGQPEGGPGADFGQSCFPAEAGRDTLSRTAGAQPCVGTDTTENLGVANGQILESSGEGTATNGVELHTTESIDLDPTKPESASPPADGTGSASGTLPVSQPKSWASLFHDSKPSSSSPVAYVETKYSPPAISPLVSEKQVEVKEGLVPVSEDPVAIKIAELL
Flag-USP10 mutant 3 (M3), amino acids 401-798 (Q14694, residues 401-798): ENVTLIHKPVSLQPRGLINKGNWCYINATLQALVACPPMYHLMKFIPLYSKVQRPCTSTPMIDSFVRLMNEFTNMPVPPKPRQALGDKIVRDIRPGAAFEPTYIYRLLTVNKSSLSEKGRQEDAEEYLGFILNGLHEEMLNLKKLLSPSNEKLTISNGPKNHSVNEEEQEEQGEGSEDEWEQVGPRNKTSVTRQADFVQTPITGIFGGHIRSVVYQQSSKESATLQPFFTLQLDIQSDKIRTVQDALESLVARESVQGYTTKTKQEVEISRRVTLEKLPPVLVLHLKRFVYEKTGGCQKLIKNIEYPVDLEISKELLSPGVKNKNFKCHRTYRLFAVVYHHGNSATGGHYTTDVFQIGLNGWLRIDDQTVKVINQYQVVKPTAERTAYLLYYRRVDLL

In PMC11895293 one finds binding data, which are given here for 3 substances.

This experiment concerns the target T1, Myc-XAB2 (UniProt Q9HCS7).
T1 sequence: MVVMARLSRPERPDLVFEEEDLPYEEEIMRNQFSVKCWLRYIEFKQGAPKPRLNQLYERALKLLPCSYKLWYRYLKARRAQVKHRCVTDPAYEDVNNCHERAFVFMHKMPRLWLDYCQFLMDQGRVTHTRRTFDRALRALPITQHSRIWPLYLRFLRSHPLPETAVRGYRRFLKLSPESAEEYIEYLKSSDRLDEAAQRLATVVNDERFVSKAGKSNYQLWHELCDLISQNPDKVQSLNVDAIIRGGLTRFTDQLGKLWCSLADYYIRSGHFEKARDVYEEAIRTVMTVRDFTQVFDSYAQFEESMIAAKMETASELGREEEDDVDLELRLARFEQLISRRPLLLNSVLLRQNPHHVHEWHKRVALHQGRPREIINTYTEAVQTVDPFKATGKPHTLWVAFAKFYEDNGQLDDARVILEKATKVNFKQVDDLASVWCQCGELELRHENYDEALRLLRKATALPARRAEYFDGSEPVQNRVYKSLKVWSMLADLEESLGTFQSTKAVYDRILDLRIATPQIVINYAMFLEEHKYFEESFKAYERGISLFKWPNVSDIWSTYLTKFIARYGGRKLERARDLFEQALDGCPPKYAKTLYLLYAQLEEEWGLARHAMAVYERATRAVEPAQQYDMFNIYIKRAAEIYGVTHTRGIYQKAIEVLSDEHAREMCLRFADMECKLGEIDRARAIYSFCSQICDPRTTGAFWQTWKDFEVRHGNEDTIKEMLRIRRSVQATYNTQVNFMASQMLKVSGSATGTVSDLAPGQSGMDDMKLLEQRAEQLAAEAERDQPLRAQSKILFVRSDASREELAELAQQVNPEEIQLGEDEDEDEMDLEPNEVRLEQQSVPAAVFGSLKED
The experiment is described as follows: co-IP; HEK293T cells transfected with Myc-XAB2 and Flag-tagged FL USP10 or its deletion mutants.
“Flag-USP10 mutant 2 (M2), amino acids 101-400 (from UniProt Q14694 101-400) (domain or fragment)”: the binding result is recorded as “no binding”.

On to “Flag-USP10 mutant 1 (M1), amino acids 1-100 (from UniProt Q14694 1-100) (domain or fragment)”, for which the binding entry was “binds”.

Regarding “Flag-USP10 mutant 3 (M3), amino acids 401-798 (from UniProt Q14694 401-798) (domain or fragment)”, the binding result was “no binding”.
